Measured values reported in patent US20220162330A1 (CELGENE, published 2022).
No constants are given. Whether binding was seen depends on the method and setting. Some entries that bind do so weakly or less than the wild type.

Molecular target: cynomolgus CD47 on cynomolgus RBCs (cynomolgus)
Test: binding to isolated cynomolgus RBCs, reference at 2 µg/ml

binding: binds
B1: TPP-23 (408_437 with IgG1) (antibody, V domains shown)
VH: QMQLVQSGAEVKKPGSSVKVSCKASGFNIKDYYLHWVRQAPGKGLEWMGWIDPDQGDTEYAQKFQGRVTITRDRSTSTAYMELRSLRAEDTAVYYCNAAYGSSSYPMDYWGQGTLVTVSS
VL: NIQMTQSPSSLSASVGDRVTITCRASQDIHRYLSWFQQKPGKVPKHLIYRANRLVSGVPSRFSGSGSGTEFTLTISSLQPEDFATYYCLQYDEFPYTFGGGTKVEIK
notes: Monospecific IgG1 with the 408_437 Fab; also called parental CD47 mAb
